The text below walks through data of the supplement of paper PMC10849652.

Protein sequences, listed by entry. Tags and fused reporters are not part of them. Lines headed by an entry give the natural chain unless they say otherwise; changes in a name come on top.
UniProt Q9UBP0: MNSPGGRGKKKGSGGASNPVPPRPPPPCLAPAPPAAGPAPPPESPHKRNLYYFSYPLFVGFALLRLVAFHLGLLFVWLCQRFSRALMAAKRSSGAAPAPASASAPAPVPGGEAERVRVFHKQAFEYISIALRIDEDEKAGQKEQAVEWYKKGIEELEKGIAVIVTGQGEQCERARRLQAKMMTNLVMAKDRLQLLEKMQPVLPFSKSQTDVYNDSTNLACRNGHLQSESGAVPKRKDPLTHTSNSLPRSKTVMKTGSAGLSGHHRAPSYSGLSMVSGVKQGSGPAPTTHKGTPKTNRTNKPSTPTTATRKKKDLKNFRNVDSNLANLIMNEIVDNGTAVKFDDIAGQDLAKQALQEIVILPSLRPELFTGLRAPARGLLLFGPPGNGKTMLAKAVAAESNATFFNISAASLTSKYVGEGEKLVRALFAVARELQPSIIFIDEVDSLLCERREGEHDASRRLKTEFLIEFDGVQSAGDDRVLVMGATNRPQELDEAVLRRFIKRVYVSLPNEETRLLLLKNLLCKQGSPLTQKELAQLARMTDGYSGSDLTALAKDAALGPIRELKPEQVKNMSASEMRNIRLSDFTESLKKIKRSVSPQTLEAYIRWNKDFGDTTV
UniProt Q13103: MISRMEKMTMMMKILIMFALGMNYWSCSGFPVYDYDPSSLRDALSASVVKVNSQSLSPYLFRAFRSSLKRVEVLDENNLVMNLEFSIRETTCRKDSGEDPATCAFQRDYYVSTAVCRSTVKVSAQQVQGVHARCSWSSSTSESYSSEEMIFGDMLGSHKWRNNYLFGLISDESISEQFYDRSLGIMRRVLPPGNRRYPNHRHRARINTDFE
UniProt Q96EA4: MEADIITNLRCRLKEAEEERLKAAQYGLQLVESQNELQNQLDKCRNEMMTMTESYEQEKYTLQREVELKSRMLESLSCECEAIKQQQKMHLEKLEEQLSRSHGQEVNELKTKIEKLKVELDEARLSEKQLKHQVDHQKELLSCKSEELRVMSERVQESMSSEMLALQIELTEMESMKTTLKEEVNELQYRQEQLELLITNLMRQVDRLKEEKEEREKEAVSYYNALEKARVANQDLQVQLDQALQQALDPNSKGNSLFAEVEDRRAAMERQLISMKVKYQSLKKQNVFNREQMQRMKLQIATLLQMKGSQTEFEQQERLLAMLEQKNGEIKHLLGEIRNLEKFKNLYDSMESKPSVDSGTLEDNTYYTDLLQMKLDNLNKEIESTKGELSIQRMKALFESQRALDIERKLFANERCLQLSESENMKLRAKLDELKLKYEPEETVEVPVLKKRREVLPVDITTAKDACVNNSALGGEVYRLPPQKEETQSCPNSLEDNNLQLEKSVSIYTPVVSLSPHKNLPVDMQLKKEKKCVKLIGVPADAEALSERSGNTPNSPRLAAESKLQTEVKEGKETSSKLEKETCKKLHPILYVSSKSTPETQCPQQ
UniProt Q8WWL2: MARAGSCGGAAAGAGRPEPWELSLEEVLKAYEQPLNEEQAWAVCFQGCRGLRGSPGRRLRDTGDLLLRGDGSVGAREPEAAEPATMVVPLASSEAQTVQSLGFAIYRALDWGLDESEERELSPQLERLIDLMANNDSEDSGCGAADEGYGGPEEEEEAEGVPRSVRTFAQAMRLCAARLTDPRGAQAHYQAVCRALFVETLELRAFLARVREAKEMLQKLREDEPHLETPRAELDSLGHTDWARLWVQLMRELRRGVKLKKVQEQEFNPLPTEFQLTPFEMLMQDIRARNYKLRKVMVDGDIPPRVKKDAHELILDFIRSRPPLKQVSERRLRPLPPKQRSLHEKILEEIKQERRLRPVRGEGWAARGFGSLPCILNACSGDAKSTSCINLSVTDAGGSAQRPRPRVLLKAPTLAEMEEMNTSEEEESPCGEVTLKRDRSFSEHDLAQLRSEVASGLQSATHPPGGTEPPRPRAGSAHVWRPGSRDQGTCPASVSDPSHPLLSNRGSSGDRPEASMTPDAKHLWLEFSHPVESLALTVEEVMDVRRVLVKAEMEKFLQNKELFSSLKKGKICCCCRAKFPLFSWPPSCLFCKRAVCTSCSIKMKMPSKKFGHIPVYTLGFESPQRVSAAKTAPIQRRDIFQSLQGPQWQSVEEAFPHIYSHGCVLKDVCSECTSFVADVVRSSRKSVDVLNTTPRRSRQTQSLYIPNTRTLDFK
UniProt Q9UQ35: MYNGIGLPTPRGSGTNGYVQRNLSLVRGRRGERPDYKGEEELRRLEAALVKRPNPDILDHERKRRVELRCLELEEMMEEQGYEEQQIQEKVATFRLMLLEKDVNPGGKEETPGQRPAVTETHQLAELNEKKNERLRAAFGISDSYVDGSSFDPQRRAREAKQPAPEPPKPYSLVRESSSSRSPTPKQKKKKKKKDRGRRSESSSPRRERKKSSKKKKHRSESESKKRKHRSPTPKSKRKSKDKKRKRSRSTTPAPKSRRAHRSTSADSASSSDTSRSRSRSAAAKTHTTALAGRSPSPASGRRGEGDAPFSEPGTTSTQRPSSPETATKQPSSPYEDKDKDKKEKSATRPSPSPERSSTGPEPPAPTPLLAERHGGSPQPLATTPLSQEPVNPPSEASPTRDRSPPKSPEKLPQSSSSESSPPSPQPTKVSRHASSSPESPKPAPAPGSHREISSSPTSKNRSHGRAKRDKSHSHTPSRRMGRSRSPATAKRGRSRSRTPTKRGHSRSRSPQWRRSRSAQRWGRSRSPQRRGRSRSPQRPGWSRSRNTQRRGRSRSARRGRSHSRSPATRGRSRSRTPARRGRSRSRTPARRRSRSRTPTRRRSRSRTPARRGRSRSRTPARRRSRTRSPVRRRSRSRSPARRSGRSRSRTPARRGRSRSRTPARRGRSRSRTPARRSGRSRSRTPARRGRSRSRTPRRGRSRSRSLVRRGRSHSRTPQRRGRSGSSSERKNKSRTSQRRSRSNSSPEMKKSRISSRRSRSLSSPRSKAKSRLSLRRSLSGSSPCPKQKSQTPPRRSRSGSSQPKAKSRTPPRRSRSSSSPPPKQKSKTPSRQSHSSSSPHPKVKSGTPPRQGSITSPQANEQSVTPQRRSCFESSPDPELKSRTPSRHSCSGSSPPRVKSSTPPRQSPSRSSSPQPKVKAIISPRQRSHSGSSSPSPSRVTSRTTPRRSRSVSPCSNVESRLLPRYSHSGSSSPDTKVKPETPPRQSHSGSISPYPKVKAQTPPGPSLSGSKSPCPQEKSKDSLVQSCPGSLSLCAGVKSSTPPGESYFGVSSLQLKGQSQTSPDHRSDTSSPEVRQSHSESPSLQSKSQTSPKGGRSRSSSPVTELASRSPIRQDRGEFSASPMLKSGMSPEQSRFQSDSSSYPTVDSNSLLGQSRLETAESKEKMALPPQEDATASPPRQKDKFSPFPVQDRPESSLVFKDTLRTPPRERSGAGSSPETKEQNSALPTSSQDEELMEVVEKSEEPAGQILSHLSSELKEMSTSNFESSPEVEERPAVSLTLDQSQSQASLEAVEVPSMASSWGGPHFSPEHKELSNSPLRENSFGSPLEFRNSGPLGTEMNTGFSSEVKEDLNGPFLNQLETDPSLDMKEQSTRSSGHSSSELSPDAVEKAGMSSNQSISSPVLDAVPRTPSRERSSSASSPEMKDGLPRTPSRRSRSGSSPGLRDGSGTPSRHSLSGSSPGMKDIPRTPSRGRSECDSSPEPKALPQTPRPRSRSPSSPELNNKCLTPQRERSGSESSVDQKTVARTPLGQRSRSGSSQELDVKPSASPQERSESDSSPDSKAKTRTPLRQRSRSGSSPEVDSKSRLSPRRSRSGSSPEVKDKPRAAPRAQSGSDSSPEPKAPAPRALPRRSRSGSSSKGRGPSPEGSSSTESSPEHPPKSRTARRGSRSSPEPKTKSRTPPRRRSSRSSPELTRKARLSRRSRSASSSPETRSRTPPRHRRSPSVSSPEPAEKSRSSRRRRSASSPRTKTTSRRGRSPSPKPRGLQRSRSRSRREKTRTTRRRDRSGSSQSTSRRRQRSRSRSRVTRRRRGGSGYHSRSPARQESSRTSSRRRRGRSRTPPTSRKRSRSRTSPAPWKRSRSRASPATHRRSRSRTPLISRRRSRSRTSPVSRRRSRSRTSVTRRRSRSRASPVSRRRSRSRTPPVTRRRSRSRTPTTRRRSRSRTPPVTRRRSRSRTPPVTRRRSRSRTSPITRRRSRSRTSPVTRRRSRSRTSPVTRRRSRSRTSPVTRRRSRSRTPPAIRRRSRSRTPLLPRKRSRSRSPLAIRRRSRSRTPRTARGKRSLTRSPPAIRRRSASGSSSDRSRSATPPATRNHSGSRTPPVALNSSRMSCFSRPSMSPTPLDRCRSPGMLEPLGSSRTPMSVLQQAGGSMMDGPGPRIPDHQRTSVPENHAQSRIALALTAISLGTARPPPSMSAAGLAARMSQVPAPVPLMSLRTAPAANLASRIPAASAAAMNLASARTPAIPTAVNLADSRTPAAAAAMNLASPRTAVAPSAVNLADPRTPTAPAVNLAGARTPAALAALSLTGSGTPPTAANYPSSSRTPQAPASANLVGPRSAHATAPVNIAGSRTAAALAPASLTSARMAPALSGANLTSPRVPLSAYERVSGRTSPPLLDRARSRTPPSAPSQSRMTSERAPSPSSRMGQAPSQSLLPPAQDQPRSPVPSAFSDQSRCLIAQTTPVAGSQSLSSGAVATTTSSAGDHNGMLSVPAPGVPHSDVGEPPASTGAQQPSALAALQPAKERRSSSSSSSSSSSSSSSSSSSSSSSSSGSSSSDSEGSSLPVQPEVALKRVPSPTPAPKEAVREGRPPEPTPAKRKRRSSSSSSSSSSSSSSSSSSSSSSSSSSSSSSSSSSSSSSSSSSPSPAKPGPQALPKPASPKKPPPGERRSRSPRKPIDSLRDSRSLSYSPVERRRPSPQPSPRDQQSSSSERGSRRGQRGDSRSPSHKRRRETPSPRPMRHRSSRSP
UniProt Q96SB4, whole entry, looked up: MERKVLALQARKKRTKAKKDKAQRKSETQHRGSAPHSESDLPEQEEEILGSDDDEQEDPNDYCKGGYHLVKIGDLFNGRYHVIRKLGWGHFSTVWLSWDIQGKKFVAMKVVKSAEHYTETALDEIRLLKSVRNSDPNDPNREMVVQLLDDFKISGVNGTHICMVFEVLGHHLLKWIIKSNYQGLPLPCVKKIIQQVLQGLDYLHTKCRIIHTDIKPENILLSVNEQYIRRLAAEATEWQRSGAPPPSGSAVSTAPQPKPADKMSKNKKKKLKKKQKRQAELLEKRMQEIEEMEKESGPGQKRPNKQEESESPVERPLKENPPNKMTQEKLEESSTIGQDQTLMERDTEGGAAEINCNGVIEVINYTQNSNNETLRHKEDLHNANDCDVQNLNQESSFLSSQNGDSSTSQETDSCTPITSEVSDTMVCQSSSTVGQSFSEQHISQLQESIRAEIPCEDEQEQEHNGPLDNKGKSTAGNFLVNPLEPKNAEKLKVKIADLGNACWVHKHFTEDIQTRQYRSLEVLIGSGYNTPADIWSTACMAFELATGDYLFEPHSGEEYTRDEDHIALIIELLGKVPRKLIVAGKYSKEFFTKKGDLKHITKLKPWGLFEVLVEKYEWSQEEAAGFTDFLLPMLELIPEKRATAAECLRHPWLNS
UniProt P37108: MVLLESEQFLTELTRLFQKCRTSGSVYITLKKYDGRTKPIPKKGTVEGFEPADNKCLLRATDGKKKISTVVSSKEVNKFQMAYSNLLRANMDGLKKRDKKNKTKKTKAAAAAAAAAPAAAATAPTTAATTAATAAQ
UniProt Q9BUA3: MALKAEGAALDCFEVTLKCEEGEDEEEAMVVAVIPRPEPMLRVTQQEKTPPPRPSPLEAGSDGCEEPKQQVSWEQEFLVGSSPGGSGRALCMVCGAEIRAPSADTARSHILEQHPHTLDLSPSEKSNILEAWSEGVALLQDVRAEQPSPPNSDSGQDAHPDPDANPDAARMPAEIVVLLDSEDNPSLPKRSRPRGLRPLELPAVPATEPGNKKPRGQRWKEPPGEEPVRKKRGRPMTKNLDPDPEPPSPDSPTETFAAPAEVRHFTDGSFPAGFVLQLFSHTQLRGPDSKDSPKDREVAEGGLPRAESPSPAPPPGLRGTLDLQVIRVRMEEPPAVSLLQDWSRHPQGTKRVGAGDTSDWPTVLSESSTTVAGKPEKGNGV
UniProt Q9NYA1, whole entry, looked up: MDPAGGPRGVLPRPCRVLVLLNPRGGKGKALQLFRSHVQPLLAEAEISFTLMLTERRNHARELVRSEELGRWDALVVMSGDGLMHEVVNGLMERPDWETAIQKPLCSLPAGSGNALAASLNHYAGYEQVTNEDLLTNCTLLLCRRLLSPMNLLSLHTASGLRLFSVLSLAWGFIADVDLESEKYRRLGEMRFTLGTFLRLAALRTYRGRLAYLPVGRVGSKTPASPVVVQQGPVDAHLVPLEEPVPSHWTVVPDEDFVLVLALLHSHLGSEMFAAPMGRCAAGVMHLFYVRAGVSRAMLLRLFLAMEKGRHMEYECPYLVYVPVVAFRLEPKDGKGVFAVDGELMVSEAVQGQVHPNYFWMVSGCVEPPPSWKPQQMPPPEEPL

This is one part of the list.

What all share (assay): log2 fold change, soluble protein after heating vs DMSO (PISA); higher = thermal stabilisation; K562 cells, 10 uM, 30 min; active = over 0.2 and 3.5 SD of the protein, either way, in both replicates (recomputed)
Compound in one assay: CN1CCN(CCOc2cc(OC3CCOCC3)c3c(Nc4c(Cl)ccc5c4OCO5)ncnc3c2)CC1 [saracatinib]
In outline: (§1)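 Soluble protein was defined as the supernatant after 21,000xg for 90 min. It came from K562 cells at 2×10^6 cells/mL given 10 μM compound for 30 min, heated in aliquots for 3 min across 48°C-58°C, pooled, and extracted in PBS with 0.5% NP-40 at 4°C, and was quantified by TMTpro 16plex LC-MS/MS with equalised channel sums. Thermal stability against control samples, from duplicates, is reported as log2 fold change.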

Compound in the next assay: CN1CCN(c2nc(C3=C(c4c[nH]c5ccccc45)C(=O)NC3=O)c3ccccc3n2)CC1 [sotrastaurin]
In outline: as §1

Compound in another assay: CN1CCc2c(c3ccccc3n2Cc2ccc(C(=O)NO)cc2)C1 [Tubastatin A]
Summed up:
as §1

Compound in assay [1]: CNC(=O)C1=CC=CC=C1NC2=NC(=NC=C2Cl)NC3=C(C=C(C=C3)N4CCOCC4)OC
In outline: as §1

Compound in the next assay: CNC(=O)c1ccc(Nc2ncc(C(F)(F)F)c(NCc3nccnc3N(C)S(C)(=O)=O)n2)cc1 [defactinib]
Summed up: as §1

Compound in the next assay: CNCc1ccc(-c2[nH]c3cc(F)cc4c3c2CCNC4=O)cc1 [rucaparib]
Summed up:
as §1

Compound in assay [2]: CNc1nc(-c2ccc3c(N)n[nH]c3c2)cc(N2C[C@@H](C(=O)NC3CCCCC3)CC[C@H]2C)n1
In outline: as §1

Compound in a further assay: COC(=O)N[C@@H](C)CNc1nccc(-c2cn(C(C)C)nc2-c2cc(Cl)cc(NS(C)(=O)=O)c2F)n1 [encorafenib]
Summed up: as §1

Compound in assay [3]: COC(=O)[C@H](CCSC)NC(=O)C1=C(C=C(C=C1)NC[C@H](CS)N)C2=CC=CC=C2
Summed up: as §1

Compound in the next assay: CN1CC[C@H](c2c(O)cc(O)c3c(=O)cc(-c4ccccc4Cl)oc23)[C@H](O)C1 [alvocidib]
In outline: as §1

As for SPAST (UniProt Q9UBP0), the log2 fold change was inactive: -0.016 in the assay with saracatinib; inactive: -0.015 with sotrastaurin; inactive: 0.003 with Tubastatin A; inactive: -0.01 in assay [1]; inactive: -0.056 in the assay with defactinib; inactive: 0.073 with rucaparib. For the same target, the log2 fold change in assay [2] was inactive: 0.115; with encorafenib it was inactive: 0.038; in assay [3] it was inactive: -0.037.

Take SPATA5 (UniProt Q8NB90): the log2 fold change is inactive: 0.025 in the assay with saracatinib; inactive: 0.023 in the assay with sotrastaurin; inactive: 0.065 with alvocidib; inactive: -0.025 with Tubastatin A; inactive: 0 in assay [1]; inactive: 0.041 with defactinib. Also, the log2 fold change in the assay with rucaparib was inactive: 0.045; in [2] it was inactive: -0.044; with encorafenib, inactive: 0; in assay [3], inactive: 0.015.

Turning to SPP2 (UniProt Q13103), the log2 fold change with saracatinib is inactive: 0.079; in the assay with sotrastaurin, inactive: 0.228; in the assay with alvocidib, inactive: 0.028; in the assay with Tubastatin A, inactive: -0.222; in assay [1], inactive: 0.03; with defactinib, inactive: 0.088. For the same target, the values for the log2 fold change in assay [2] and in assay [3] were inactive: -0.027 and inactive: -0.006, respectively.

Turning to SPDL1 (UniProt Q96EA4), the log2 fold change is inactive: 0.04 with saracatinib; inactive: 0.024 with sotrastaurin; inactive: -0.037 in the assay with alvocidib; inactive: 0.19 with Tubastatin A; inactive: 0.054 in assay [1]; inactive: 0.234 with rucaparib. The log2 fold change in [2] was inactive: -0.084; with encorafenib, inactive: 0.11.

In the case of SPIRE2 (UniProt Q8WWL2), the log2 fold change was inactive: 0.774 with saracatinib; inactive: -0.031 with sotrastaurin; inactive: -0.123 with alvocidib; inactive: -0.174 in the assay with Tubastatin A; inactive: -0.546 with rucaparib; inactive: 0.268 in assay [2]. Further, in the assay with encorafenib, the log2 fold change is inactive: -0.108.

Consider SRRM2 (UniProt Q9UQ35), for which the log2 fold change with saracatinib is inactive: -0.026; in the assay with sotrastaurin it was inactive: -0.048; in the assay with alvocidib, active: -0.412; with Tubastatin A it was inactive: 0.093; in assay [1], inactive: -0.264; in the assay with defactinib, inactive: -0.298. Further, the log2 fold change in the assay with rucaparib was inactive: 0.013; in [2], inactive: -0.009; with encorafenib, inactive: -0.013; in assay [3], inactive: 0.047.

Regarding SRPK1 (UniProt Q96SB4), the log2 fold change with saracatinib was inactive: -0.214; with sotrastaurin, inactive: -0.025; in the assay with alvocidib, inactive: 0.453; with Tubastatin A, inactive: 0.116; in [1] it was inactive: 0.102; with defactinib, inactive: 0.407. The log2 fold change in the assay with rucaparib was inactive: 0.283; in assay [2], inactive: 0.132; with encorafenib, inactive: 0.152; in assay [3], inactive: -0.065.

As for SPCS1, A0A5F9YFS9, the log2 fold change with saracatinib is inactive: -0.04; in the assay with sotrastaurin it was inactive: -0.042; with alvocidib, inactive: -0.256; in the assay with Tubastatin A, inactive: 0.105; in assay [1], inactive: -0.021; in the assay with defactinib it was inactive: -0.079. Moreover, the log2 fold change is inactive: -0.035 with rucaparib, inactive: 0.041 in assay [2], inactive: -0.074 in the assay with encorafenib and inactive: -0.055 in assay [3].

Consider SRP14 (UniProt P37108), for which the log2 fold change with saracatinib is inactive: -0.059; with sotrastaurin, inactive: 0; with alvocidib, inactive: 0.279; with Tubastatin A, inactive: 0.105; in [1] it was inactive: -0.037; with defactinib, inactive: 0.266. For the same target, the log2 fold change was inactive: 0.349 in the assay with rucaparib, inactive: 0.105 in assay [2], inactive: 0.127 with encorafenib and inactive: 0.045 in assay [3].

Regarding SPINDOC (UniProt Q9BUA3), the log2 fold change with saracatinib is inactive: 0.185; with sotrastaurin it was inactive: -0.23; with Tubastatin A, inactive: -0.121; in assay [1], inactive: -0.039; in the assay with defactinib, inactive: 0.068; with rucaparib, inactive: 0. The figures for the log2 fold change (in assay [2]; with encorafenib; in [3]) were inactive: -0.02, inactive: 0.057 and inactive: 0.049, respectively.

In the case of SRGAP2 (UniProt O75044), the log2 fold change was inactive: -0.019 in the assay with saracatinib; inactive: -0.055 with sotrastaurin; inactive: -0.086 with alvocidib; inactive: 0.052 with Tubastatin A; inactive: 0.007 in assay [1]; inactive: -0.075 with defactinib. The log2 fold change in the assay with rucaparib was inactive: 0.026; in assay [2] it was inactive: 0.03; with encorafenib, inactive: 0.004; in assay [3] it was inactive: 0.042.

Regarding STAT6 (UniProt P42226), the log2 fold change was inactive: 0.087 with saracatinib; inactive: 0.115 with sotrastaurin; inactive: 0.101 with Tubastatin A; inactive: 0.029 in [1]; inactive: -0.121 with defactinib; inactive: 0.076 in the assay with rucaparib. In addition, the log2 fold change in assay [2] was inactive: 0.201; in the assay with encorafenib it was inactive: 0.189; in assay [3] it was inactive: -0.168.

Take SPHK1 isoform 2 (UniProt Q9NYA1): the log2 fold change in the assay with saracatinib was inactive: -0.018; in the assay with sotrastaurin, inactive: 0.199; in the assay with alvocidib it was inactive: -0.07; in the assay with Tubastatin A it was inactive: -0.023; in [1] it was inactive: 0.01; in the assay with defactinib, inactive: -0.153. In addition, the log2 fold change was inactive: 0.013 with rucaparib, inactive: -0.036 in assay [2], inactive: -0.026 with encorafenib and inactive: -0.089 in assay [3].
